Test results taken from article PMC3765312.
These are yes or no findings as the source states them, for the method shown. In cells and extracts the contact can be indirect. Some binding calls cover weakened binding; strength is not graded here.

T1: GLUT1 (mouse (endogenous in L cells)) (UniProt P17809)
T1 sequence: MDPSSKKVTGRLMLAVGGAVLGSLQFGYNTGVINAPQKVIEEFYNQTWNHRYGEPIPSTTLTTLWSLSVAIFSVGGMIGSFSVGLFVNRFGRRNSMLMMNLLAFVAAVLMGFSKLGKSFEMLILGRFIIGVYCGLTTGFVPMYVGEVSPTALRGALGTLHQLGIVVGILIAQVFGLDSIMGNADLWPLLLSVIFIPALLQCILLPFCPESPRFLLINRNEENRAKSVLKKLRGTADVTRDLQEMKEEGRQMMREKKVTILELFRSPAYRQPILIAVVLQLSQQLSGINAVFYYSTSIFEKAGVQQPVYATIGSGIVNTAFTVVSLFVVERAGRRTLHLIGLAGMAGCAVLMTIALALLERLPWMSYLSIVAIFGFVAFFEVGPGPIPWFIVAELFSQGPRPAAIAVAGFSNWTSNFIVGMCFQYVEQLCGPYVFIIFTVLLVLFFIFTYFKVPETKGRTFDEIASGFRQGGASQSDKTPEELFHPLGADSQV

T2: Plin2 (mouse (endogenous in L cells)) (UniProt P43883)
T2 sequence: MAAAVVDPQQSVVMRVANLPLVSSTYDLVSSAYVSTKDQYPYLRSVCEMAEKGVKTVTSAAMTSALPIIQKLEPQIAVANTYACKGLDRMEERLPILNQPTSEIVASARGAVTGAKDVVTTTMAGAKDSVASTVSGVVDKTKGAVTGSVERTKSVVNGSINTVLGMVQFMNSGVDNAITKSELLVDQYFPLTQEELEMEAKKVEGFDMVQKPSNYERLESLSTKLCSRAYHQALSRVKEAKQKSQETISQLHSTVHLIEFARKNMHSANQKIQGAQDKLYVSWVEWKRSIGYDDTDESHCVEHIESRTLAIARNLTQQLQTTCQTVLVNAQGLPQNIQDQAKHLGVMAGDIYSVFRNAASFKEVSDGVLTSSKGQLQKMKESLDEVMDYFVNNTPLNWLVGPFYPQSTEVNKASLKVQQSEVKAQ

T3: SNAP23 (mouse (endogenous in L cells)) (UniProt O09044)
T3 sequence: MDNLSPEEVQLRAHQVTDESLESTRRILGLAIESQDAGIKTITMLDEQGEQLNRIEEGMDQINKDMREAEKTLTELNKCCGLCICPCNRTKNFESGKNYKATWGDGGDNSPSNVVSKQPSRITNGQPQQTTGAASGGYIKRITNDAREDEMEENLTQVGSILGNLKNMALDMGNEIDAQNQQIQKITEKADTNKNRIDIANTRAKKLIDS


What was measured:
Experiment in all cases: co-IP; Catch and Release v2.0 spin columns; lysates of control and Plin2 overexpression L cells with antibody (1-4 µg) overnight at 4 °C; GLUT1, Plin2 or SNAP23 precipitated in turn; eluates analysed by Western blot (n=3); rabbit IgG as negative control
[1] = biological target: T1, GLUT1 (mouse (endogenous in L cells))
[2] = biological target: T2, Plin2 (mouse (endogenous in L cells))
[3] = biological target: T3, SNAP23 (mouse (endogenous in L cells))

| Binder | binding [1] | binding [2] | binding [3] |
| --- | --- | --- | --- |
| SNAP23 (protein, UniProt O09044 1-210) MDNLSPEEVQLRAHQVTDESLESTRRILGLAIESQDAGIKTITMLDEQGEQLNRIEEGMDQINKDMREAEKTLTELNKCCGLCICPCNRTKNFESGKNYKATWGDGGDNSPSNVVSKQPSRITNGQPQQTTGAASGGYIKRITNDAREDEMEENLTQVGSILGNLKNMALDMGNEIDAQNQQIQKITEKADTNKNRIDIANTRAKKLIDS | binds | binds |  |
| Plin2 (protein, UniProt P43883 1-425) MAAAVVDPQQSVVMRVANLPLVSSTYDLVSSAYVSTKDQYPYLRSVCEMAEKGVKTVTSAAMTSALPIIQKLEPQIAVANTYACKGLDRMEERLPILNQPTSEIVASARGAVTGAKDVVTTTMAGAKDSVASTVSGVVDKTKGAVTGSVERTKSVVNGSINTVLGMVQFMNSGVDNAITKSELLVDQYFPLTQEELEMEAKKVEGFDMVQKPSNYERLESLSTKLCSRAYHQALSRVKEAKQKSQETISQLHSTVHLIEFARKNMHSANQKIQGAQDKLYVSWVEWKRSIGYDDTDESHCVEHIESRTLAIARNLTQQLQTTCQTVLVNAQGLPQNIQDQAKHLGVMAGDIYSVFRNAASFKEVSDGVLTSSKGQLQKMKESLDEVMDYFVNNTPLNWLVGPFYPQSTEVNKASLKVQQSEVKAQ |  |  | binds |
| GLUT1 (protein, UniProt P17809 1-492) MDPSSKKVTGRLMLAVGGAVLGSLQFGYNTGVINAPQKVIEEFYNQTWNHRYGEPIPSTTLTTLWSLSVAIFSVGGMIGSFSVGLFVNRFGRRNSMLMMNLLAFVAAVLMGFSKLGKSFEMLILGRFIIGVYCGLTTGFVPMYVGEVSPTALRGALGTLHQLGIVVGILIAQVFGLDSIMGNADLWPLLLSVIFIPALLQCILLPFCPESPRFLLINRNEENRAKSVLKKLRGTADVTRDLQEMKEEGRQMMREKKVTILELFRSPAYRQPILIAVVLQLSQQLSGINAVFYYSTSIFEKAGVQQPVYATIGSGIVNTAFTVVSLFVVERAGRRTLHLIGLAGMAGCAVLMTIALALLERLPWMSYLSIVAIFGFVAFFEVGPGPIPWFIVAELFSQGPRPAAIAVAGFSNWTSNFIVGMCFQYVEQLCGPYVFIIFTVLLVLFFIFTYFKVPETKGRTFDEIASGFRQGGASQSDKTPEELFHPLGADSQV |  |  | binds |
| Plin1 (protein, UniProt Q8CGN5 1-517) MSMNKGPTLLDGDLPEQENVLQRVLQLPVVSGTCECFQKTYNSTKEAHPLVASVCNAYEKGVQGASNLAAWSMEPVVRRLSTQFTAANELACRGLDHLEEKIPALQYPPEKIASELKGTISTRLRSARNSISVPIASTSDKVLGATLAGCELALGMAKETAEYAANTRVGRLASGGADLALGSIEKVVEFLLPPDKESAPSSGRQRTQKAPKAKPSLVRRVSTLANTLSRHTMQTTAWALKQGHSLAMWIPGVAPLSSLAQWGASAAMQVVSRRQSEVRVPWLHNLAASQDESHDDQTDTEGEETDDEEEEEESEAEENVLREVTALPNPRGLLGGVVHTVQNTLRNTISAVTWAPAAVLGTVGRILHLTPAQAVSSTKGRAMSLSDALKGVTDNVVDTVVHYVPLPRLSLMEPESEFRDIDNPSAEAERKGSGARPASPESTPRPGQPRGSLRSVRGLSAPSCPGLDDKTEASARPGFLAMPREKPARRVSDSFFRPSVMEPILGRAQYSQLRKKS |  |  | no binding |
